Results taken from publication PMC5967306.
These are yes or no findings as the source states them, for the method shown. Binding seen in cells or lysates may run through a third protein. Here binding means that the protein was enriched with, or labelled near, the bait; the list need not be complete. Tags and fused reporters may be left off the sequences shown.

Molecular target: T1, FLAG-tagged FAM188B (human) (UniProt Q4G0A6)
T1 sequence: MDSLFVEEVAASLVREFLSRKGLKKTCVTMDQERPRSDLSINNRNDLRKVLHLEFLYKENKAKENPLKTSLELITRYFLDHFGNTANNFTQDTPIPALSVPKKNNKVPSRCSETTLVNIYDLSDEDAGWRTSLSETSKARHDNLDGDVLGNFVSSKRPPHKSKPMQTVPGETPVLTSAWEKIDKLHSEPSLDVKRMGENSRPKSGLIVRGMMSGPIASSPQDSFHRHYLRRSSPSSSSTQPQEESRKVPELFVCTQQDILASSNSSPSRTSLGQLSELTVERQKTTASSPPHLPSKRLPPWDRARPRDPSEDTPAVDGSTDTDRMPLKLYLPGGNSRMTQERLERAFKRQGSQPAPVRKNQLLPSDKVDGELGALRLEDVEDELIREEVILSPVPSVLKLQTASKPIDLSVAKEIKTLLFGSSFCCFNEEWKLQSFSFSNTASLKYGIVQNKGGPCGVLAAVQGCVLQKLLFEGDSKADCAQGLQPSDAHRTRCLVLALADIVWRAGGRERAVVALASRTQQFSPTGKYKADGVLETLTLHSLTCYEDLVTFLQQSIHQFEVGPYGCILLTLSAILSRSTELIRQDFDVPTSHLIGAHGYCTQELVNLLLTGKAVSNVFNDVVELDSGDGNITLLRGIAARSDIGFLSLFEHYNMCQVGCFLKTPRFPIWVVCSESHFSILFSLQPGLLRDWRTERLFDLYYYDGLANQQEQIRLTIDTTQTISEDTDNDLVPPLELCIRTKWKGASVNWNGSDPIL
Assay: affinity purification with mass spectrometry; FLAG-FAM188B overexpressed in HEK-293 cells, immunoprecipitated with anti-FLAG-M2 agarose affinity gel, resolved on SDS-PAGE, LC/MS-MS

| binding | Substance |
| --- | --- |
| binds | USP7 (from UniProt Q93009 1-1102) (enzyme) |
| binds | p53 (from UniProt P04637 1-393) |
